According to article PMC12629592, “MCAK recognizes the nucleotide-dependent feature at growing microtubule ends” (eLife, 2025):
Results are given in words; binding and its absence hold for the method and conditions named.

Sequences of proteins named here, by UniProt entry; tags and fusion partners are left off. Residues count along the entry.
UniProt Q99661, residues 216-598: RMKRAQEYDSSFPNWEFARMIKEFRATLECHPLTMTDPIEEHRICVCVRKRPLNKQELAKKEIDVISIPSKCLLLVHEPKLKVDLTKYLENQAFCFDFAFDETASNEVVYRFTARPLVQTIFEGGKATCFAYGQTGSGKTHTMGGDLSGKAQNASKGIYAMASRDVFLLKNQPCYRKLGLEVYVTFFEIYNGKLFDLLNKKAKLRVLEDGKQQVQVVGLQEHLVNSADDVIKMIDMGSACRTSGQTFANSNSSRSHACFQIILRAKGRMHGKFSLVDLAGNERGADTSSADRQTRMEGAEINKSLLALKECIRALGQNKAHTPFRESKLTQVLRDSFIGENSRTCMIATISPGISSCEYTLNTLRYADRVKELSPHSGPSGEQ

Molecular target: GFP-MCAK^sN+M (UniProt Q99661)
Assay: single-molecule fluorescence intensity (TIRF microscopy); fluorescence intensity of single binding events on dynamic microtubules (tubulin 16 μM), 10 nM protein, 1 mM ATP; ends and lattice not told apart; both purified

binding: no binding
Substance: GFP-MCAK^sN+M (from UniProt Q99661 216-598) (domain or fragment)
